For the data set the following is noted: mouse, in vivo, ip, 6 mg/kg.

Here are results for 1 molecule from patent US10751335B2 (priority 2016, dated 2020).

Structures are written as SMILES.

On to `CN1CC[C@]23c4c5ccc(O)c4O[C@H]2[C@@H](O)C=C[C@H]3[C@H]1C5` [morphine], for which the “plasma and brain levels at various time points” value is “not detectable”.
